Assay results published in paper PMC9346556.
These are yes or no findings as the source states them, for the method shown. In cells and extracts the contact can be indirect. Binding can be weak; no strength is given. Sequences can lack the tags named with a protein.

The chains behind the UniProt entries cited, without tags or fusion partners. Where a name states a change or a piece, a line headed by the entry shows the natural chain unless it says otherwise.
UniProt P36874: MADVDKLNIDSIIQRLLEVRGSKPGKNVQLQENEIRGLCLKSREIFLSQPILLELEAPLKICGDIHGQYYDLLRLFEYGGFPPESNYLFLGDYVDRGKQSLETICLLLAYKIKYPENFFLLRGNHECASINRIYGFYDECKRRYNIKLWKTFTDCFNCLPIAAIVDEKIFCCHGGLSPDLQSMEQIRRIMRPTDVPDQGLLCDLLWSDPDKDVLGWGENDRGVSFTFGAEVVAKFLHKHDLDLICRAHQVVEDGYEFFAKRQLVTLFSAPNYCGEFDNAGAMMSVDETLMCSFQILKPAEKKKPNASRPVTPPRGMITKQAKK

Molecular target: T1, PbLRR1 expressed in Xenopus oocytes from cRNA (PbLRR1-pGADT7 template), HA-tagged (P. berghei)
T1 sequence: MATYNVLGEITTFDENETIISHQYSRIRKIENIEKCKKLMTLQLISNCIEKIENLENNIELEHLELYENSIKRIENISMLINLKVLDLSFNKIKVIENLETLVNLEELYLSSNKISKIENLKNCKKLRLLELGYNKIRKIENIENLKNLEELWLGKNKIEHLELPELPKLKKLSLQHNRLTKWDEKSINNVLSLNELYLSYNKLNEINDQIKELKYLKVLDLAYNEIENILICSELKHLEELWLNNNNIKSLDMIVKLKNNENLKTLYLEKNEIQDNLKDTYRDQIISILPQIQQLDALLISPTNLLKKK
Experiment: co-IP; Xenopus oocytes pre-injected with peptides (100 ng), control peptide P0 or PBS 1 h before PbLRR1 cRNA; extracts precipitated with anti-PP1 mAb (blot anti-HA) and with anti-HA (blot anti-PP1)

## Xenopus PP1 catalytic subunit (XePP1c), endogenous in oocytes (from UniProt P36874) (enzyme)
  binding: binds
